Measured values taken from article PMC9231786.
No constants are given. Whether binding was seen depends on the method and setting.

Amino acid sequences for entries named in this document (tags omitted). Residues count along the entry.
UniProt Q92692, residues 32-360: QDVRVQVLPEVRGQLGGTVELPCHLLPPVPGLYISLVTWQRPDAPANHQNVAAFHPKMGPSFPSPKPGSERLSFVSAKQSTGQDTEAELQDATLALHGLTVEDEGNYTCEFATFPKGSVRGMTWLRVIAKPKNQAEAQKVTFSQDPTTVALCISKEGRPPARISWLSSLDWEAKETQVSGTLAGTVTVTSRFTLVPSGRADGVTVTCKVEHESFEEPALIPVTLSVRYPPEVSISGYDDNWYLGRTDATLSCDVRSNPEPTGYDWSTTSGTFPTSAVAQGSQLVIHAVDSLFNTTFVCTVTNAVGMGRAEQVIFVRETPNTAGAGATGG
UniProt P43626, residues 22-245: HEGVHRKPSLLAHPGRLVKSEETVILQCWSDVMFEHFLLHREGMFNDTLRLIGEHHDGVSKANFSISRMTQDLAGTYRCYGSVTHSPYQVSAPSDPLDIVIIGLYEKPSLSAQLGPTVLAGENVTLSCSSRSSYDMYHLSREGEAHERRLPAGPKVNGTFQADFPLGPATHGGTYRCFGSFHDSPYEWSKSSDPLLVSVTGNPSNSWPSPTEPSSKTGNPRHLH
UniProt P43629, residues 22-340: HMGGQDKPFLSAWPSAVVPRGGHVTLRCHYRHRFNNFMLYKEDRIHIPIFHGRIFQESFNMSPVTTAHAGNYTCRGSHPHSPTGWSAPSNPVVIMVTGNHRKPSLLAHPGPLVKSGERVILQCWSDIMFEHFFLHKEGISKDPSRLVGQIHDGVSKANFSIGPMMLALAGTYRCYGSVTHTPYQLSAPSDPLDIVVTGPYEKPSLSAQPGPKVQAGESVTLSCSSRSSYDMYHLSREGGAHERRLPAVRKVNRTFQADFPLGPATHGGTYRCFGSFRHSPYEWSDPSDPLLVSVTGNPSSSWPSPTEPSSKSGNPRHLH
UniProt Q99706, residues 22-242: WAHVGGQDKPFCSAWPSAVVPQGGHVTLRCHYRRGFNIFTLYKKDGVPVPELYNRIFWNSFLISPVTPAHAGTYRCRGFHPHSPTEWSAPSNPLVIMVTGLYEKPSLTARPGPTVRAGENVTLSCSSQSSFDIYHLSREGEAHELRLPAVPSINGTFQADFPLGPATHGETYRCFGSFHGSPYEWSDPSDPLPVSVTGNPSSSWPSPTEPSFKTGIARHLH
UniProt P43628, residues 22-245: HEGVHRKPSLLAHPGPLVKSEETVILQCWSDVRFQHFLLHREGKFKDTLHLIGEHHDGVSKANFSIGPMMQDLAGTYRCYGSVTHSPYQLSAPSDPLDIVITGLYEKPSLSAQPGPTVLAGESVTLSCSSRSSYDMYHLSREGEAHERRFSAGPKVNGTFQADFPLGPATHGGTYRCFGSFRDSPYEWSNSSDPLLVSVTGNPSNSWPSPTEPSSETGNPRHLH

How the values were obtained:
[1] = target: biotinylated CD112 (Nectin-2) (UniProt Q92692); experiment: flow cytometry on protein-coated beads; streptavidin Dynabeads coated with biotinylated CD155, CD112 or biotin (200 pmol protein/mg beads); Fc constructs in solution at 25 μg/ml in PBS, 15 min at 4°C; detected with PE-labelled F(ab)2 goat-anti-human IgG; read-out MFI; both purified
[2] = target: T1, biotinylated CD155 (PVR, poliovirus receptor) (UniProt P15151); experiment: as above
T1 sequence (chain, biotin (biotinylated; site not stated)): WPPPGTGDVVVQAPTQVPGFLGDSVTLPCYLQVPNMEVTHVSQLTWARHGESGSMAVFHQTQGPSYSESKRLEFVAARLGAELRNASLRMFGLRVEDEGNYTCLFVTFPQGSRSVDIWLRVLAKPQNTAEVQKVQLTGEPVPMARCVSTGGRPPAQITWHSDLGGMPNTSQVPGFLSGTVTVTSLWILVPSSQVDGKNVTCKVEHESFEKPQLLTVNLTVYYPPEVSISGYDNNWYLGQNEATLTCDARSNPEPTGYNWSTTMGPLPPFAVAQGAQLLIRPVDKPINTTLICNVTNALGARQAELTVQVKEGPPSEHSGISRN

For “KIR2DL1-Fc construct (recombinant human) (from UniProt P43626 22-245) (Fc fusion)”, which binding [1] is on record?
The binding was “no binding (tested: 25 μg/ml)”.

And the binding [2]?
Its binding is “no binding (tested: 25 μg/ml)”.

Which results are given for “KIR3DL1-Fc construct (recombinant human) (from UniProt P43629 22-340) (Fc fusion)”?
binding [1]: no binding (tested: 25 μg/ml); binding [2]: no binding (tested: 25 μg/ml)

With “KIR2DL4-Fc construct (recombinant human) (from UniProt Q99706 22-242) (Fc fusion)” as the substance, how does the binding [1] read?
Its binding is “no binding (tested: 25 μg/ml)”.

What about the binding [2] of the same substance?
Its binding is “no binding (tested: 25 μg/ml)”.

Which results are given for “KIR2DL3-Fc construct (recombinant human) (from UniProt P43628 22-245) (Fc fusion)”?
binding [1]: no binding (tested: 25 μg/ml); binding [2]: no binding (tested: 25 μg/ml)
